Consider three molecules from publication PMC4118853, “Phage Orf Family Recombinases: Conservation of Activities and Involvement of the Central Channel in DNA Binding” (PLoS ONE, 2014).

Chains of the proteins cited; added tags and fusions are not shown. Lines headed by an entry give the natural chain unless they say otherwise; changes in a name come on top.
UniProt P0AGE0: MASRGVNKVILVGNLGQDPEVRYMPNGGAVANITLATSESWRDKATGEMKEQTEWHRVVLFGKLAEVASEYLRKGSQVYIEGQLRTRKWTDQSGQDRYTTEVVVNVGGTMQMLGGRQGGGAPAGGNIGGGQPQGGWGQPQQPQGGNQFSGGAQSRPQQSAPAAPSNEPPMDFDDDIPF

Results are given in words; binding and its absence hold for the method and conditions named. Some binding calls cover weakened binding; strength is not graded here. Where a sequence is shown, tags or fusion partners need not be part of it.

In one assay the target is T1, MBP-Orf V106E (Bacteriophage lambda, UniProt P03765 1-146, V106E).
T1 sequence: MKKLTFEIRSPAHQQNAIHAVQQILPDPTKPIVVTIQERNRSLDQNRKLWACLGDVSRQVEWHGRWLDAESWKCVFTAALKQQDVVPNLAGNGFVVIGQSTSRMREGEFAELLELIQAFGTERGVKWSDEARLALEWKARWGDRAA
Briefly: static light scattering; 0.2 mg/ml protein in 100 mM Tris-HCl pH 7 at 25°C, Zetasizer µV; mass estimated for a spherical particle; both purified.

For assay [1], the target named is SSBΔ115-144 (E. coli SSB deletion mutant) (E. coli) (UniProt P0AGE0). Briefly: ELISA; SSB wt or mutant (0.5 µg) bound to the microtitre plate in PBS, GST fusion added for 1 hr at 37°C, detected with HRP-anti-GST antibody, A620nm; both purified. For orientation: ELISA stands for enzyme-linked immunosorbent assay.
Compound in assay [2]: SSB fused to the GAL4 DNA-binding or activating domain (E. coli) (UniProt P0AGE0)
Briefly: two-hybrid; yeast two-hybrid, constructs fused to the GAL4 DNA-binding or activating domains, β-galactosidase activity (Miller units).

B1: MBP-Orf V106E (natural protein, bacteriophage λ)
chain: MKKLTFEIRSPAHQQNAIHAVQQILPDPTKPIVVTIQERNRSLDQNRKLWACLGDVSRQVEWHGRWLDAESWKCVFTAALKQQDVVPNLAGNGFVVIGQSTSRMREGEFAELLELIQAFGTERGVKWSDEARLALEWKARWGDRAA
notes: Orf (NinB) of bacteriophage λ with V106E; Mutant derivative in pMALc2; Tends to form multimers or aggregates; source: E. coli BL21-AI carrying the pMALc2 construct, purified (amylose, heparin-agarose)
For B1, the binding entry in the assay with MBP-Orf V106E is reported as “binds”.

B2: GST-YbcN (N-terminal glutathione S-transferase fusion of DLP12 YbcN) (natural protein, E. coli (cryptic prophage DLP12), UniProt Q47269 1-151, looked up)
chain: MNLSQDGIKLHRGNFTAIGRQIQPYLEEGKCFRMVLKPWREKRSLSQNALSHMWYSEISEYLISRGKTFATPAWVKDALKHTYLGYETKDLVDVVTGDITTIQSLRHTSDLDTGEMYVFLCKVEAWAMNIGCHLTIPQSCEFQLLRDKQEA
notes: YbcN (orf151), Orf-family protein of E. coli cryptic prophage DLP12; insert of pLB101 moved into pGEX-6P-1; predicted monomer of the GST fusion 44.6 kDa; higher oligomers are put down to dimer-dimer combinations; also called DLP12 GST-YbcN; source: E. coli BL21 Codon Plus carrying pLB108, purified (glutathione sepharose, heparin agarose, Q sepharose); not shown: GST, N-terminal, kept
B2: the binding result in assay [1] is “binds”.

B3: YbcN fused to the GAL4 DNA-binding or activating domain (protein, UniProt Q47269 1-151)
chain: MNLSQDGIKLHRGNFTAIGRQIQPYLEEGKCFRMVLKPWREKRSLSQNALSHMWYSEISEYLISRGKTFATPAWVKDALKHTYLGYETKDLVDVVTGDITTIQSLRHTSDLDTGEMYVFLCKVEAWAMNIGCHLTIPQSCEFQLLRDKQEA
With B3, the binding entry in assay [2] is “binds”.
